Results are given in words; binding and its absence hold for the method and conditions named. Binding seen in cells or lysates may run through a third protein. Some results given as binding are weak or reduced against the parent protein; the word gives no strength. For part of these data: Sequences can lack the tags named with a protein.
How the values were obtained:
Experiment in all cases: epitope excision on immobilized AE12-1 (Sepharose), LC-MS/MS
[1] = target: T1, pelB-M-[RGMA(47-168)]-6His (E.coli) (human)
T1 sequence: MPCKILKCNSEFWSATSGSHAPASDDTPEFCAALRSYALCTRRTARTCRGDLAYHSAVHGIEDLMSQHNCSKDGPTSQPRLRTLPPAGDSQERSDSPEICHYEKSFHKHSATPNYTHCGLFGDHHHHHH

[2] = target: [IgK-leader]-AttB1-[hRGMA(47-422)]-AttB2-MYC-6His (human)
[3] = target: [IgK-leader]-AttB1-[hRGMA(47-168)]-Xa-[hIgG L Fc (257-481)] (human)

binding [1]: binds | binding [2]: binds | binding [3]: binds
B1: AE12-1 (antibody, V domains shown)
VH: EVQLVQSGAEVKKPGASVKVSCKASGYTFTSHGISWVRQAPGQGLDWMGWISPYSGNTNYAQKLQGRVTMTTDTSTSTAYMELSSLRSEDTAVYYCARVGSGPYYYMDVWGQGTLVTVSS
VL: QSALTQPRSVSGSPGQSVTISCTGTSSSVGDSIYVSWYQQHPGKAPKLMLYDVTKRPSGVPDRFSGSKSGNTASLTISGLQAEDEADYYCCSYAGTDTLFGGGTKVTVL

From patent US20190276526A1 (AbbVie / Abbott, published 2019)
